Measured values: the supplement of paper PMC10849652
This is one part of the list.

Sequences of proteins named here, by UniProt entry; tags and fusion partners are left off. A change or cut given only in a name is not applied to a line headed by its entry.
UniProt Q96PV6, whole entry, looked up: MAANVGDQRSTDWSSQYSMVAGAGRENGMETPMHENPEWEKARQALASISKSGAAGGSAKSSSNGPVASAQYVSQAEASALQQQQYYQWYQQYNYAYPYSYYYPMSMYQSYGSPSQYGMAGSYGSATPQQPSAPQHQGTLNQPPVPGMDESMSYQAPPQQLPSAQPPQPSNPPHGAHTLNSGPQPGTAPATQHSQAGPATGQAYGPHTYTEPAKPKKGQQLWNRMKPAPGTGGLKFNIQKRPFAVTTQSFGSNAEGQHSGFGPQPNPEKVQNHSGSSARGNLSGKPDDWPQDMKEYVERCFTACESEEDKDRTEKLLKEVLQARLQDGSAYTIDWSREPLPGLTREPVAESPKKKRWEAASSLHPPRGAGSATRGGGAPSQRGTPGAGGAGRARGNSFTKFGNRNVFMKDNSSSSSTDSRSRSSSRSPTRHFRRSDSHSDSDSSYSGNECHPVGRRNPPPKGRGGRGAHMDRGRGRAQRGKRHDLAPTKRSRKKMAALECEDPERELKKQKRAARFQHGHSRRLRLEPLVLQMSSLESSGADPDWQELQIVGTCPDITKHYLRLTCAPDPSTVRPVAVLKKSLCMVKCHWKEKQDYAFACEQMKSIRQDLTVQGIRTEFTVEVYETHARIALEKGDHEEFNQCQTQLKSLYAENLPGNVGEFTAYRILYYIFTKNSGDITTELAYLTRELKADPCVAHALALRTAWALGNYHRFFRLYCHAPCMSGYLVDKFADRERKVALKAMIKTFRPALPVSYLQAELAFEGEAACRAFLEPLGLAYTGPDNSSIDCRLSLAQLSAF
UniProt O75581: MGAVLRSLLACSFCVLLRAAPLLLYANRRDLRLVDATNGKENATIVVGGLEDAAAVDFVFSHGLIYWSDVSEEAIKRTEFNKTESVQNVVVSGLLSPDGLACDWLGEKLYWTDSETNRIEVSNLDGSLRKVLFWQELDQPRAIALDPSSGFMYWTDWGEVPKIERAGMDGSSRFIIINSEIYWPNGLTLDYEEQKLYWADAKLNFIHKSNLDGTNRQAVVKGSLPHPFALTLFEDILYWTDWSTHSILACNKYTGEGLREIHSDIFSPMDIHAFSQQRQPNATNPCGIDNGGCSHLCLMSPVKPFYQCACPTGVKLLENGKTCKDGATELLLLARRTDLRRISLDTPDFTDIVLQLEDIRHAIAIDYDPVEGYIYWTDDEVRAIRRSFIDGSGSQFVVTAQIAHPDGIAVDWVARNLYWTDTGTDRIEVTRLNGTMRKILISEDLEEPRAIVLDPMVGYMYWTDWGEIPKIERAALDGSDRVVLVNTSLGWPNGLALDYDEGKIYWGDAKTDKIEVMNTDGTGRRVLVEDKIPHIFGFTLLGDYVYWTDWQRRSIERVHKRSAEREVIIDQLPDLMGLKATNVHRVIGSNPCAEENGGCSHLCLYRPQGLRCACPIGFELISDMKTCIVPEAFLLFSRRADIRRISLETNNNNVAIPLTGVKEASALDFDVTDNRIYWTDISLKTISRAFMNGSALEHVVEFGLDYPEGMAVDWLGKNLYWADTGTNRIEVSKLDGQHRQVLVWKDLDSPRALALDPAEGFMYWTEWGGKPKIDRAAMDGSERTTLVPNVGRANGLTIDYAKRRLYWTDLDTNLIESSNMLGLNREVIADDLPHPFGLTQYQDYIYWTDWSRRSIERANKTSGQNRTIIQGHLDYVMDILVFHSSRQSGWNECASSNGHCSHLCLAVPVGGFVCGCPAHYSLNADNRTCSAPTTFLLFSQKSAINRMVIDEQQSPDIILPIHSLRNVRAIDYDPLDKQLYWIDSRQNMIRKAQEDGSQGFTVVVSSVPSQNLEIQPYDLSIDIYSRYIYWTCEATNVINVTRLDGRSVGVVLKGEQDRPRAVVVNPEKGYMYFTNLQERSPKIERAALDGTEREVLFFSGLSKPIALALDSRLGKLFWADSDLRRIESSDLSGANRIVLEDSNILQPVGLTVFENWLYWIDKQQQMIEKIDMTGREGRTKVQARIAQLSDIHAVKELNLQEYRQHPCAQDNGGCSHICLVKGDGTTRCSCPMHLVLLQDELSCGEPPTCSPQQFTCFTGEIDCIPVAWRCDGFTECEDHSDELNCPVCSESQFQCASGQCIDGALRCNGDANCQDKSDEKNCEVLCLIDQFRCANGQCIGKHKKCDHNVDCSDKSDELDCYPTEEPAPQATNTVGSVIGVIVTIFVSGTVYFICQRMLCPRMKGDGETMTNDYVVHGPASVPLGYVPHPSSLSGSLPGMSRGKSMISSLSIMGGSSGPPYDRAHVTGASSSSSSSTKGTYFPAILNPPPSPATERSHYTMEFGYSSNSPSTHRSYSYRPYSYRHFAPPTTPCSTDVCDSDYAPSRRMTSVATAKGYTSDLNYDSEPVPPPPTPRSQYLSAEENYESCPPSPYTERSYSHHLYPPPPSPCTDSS
UniProt O75197: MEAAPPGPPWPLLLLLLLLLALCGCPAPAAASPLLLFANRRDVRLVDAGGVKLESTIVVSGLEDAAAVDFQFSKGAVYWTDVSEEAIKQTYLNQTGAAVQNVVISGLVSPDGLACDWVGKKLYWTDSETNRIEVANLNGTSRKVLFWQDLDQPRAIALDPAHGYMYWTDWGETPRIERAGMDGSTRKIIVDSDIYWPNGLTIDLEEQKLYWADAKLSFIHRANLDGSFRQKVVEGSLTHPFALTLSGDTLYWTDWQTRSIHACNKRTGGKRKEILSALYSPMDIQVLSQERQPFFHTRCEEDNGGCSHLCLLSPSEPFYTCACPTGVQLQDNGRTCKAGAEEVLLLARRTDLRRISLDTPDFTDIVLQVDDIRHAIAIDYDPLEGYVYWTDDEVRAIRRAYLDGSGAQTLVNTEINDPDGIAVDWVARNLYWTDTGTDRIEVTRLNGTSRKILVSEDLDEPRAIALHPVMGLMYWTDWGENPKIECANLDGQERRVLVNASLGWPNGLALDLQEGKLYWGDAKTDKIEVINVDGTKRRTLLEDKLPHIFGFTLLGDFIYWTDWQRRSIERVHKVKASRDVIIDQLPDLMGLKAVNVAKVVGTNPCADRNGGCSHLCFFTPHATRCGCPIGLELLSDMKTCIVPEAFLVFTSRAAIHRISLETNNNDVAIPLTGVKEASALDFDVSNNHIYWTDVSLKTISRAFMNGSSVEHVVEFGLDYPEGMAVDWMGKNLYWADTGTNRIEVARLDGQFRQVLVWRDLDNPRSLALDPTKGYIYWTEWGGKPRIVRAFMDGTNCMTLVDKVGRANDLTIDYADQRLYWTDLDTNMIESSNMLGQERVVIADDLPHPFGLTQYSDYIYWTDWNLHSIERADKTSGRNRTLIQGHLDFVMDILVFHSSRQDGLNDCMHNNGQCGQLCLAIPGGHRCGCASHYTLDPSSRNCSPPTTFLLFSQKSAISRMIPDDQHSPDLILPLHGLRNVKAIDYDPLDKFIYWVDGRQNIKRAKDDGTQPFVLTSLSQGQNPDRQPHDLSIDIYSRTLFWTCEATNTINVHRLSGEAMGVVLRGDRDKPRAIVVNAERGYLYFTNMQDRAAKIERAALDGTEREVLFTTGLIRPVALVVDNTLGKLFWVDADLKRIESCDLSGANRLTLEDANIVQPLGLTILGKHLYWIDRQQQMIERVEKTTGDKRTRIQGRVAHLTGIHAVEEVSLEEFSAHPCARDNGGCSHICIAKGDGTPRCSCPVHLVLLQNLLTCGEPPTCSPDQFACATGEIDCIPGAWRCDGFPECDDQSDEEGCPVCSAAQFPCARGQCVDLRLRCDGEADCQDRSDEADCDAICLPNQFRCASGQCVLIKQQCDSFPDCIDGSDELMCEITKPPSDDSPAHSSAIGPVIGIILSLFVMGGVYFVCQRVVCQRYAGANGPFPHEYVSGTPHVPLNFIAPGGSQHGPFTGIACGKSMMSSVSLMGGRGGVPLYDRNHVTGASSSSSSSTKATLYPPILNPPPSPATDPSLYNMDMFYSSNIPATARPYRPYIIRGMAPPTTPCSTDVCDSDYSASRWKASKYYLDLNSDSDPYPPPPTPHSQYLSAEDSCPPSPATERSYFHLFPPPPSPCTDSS
UniProt Q9Y4W2: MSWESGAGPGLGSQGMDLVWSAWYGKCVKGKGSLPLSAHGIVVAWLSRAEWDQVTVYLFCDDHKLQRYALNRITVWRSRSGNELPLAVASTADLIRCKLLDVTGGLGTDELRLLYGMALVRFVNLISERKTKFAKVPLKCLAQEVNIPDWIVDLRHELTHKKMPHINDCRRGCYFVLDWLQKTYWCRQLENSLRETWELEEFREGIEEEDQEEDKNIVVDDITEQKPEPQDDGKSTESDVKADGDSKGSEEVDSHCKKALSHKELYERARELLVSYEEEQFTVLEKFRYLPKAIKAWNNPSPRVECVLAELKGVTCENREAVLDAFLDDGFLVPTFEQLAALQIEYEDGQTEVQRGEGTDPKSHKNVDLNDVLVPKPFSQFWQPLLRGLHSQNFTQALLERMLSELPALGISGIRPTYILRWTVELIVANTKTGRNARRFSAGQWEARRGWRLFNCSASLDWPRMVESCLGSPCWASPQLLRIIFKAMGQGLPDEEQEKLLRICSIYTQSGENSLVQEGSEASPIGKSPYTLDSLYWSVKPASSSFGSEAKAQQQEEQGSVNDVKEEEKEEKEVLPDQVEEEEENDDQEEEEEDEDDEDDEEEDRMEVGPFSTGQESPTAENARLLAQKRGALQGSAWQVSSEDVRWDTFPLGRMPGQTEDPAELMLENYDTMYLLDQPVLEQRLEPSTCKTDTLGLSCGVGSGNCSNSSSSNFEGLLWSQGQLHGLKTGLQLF
UniProt Q15334: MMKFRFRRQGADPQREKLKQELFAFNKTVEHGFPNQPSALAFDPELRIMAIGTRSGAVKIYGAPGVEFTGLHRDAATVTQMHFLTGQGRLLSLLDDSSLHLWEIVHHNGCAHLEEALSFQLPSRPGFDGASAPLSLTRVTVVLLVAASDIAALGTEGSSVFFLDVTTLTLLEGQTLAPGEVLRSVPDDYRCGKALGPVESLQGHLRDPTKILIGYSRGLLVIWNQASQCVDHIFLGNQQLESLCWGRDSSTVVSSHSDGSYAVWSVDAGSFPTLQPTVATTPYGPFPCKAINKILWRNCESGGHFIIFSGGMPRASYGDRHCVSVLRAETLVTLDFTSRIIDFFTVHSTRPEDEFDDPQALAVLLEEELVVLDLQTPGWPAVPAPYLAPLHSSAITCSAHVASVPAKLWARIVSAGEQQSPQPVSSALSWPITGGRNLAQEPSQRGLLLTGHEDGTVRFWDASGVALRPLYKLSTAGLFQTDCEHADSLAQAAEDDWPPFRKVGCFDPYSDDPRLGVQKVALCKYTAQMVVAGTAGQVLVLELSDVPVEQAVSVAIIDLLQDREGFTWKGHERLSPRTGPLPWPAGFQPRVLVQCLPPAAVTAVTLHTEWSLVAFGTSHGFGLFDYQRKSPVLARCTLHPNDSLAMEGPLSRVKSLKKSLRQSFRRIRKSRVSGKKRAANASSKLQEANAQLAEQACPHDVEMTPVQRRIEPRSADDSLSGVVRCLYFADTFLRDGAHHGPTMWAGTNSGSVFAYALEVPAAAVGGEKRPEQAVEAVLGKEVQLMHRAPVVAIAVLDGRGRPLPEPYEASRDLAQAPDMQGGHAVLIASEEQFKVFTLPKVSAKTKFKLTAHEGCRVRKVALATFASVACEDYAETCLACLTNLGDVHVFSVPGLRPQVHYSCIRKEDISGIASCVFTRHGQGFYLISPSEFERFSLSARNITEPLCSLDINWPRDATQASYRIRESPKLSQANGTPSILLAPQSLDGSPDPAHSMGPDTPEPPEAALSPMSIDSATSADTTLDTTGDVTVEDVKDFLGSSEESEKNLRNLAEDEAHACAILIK
UniProt P61968: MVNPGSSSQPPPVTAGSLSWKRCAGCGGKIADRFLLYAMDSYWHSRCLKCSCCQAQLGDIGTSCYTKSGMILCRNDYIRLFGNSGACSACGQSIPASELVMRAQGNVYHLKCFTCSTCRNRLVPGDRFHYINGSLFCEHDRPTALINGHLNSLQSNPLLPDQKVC
UniProt P17931, whole entry, looked up: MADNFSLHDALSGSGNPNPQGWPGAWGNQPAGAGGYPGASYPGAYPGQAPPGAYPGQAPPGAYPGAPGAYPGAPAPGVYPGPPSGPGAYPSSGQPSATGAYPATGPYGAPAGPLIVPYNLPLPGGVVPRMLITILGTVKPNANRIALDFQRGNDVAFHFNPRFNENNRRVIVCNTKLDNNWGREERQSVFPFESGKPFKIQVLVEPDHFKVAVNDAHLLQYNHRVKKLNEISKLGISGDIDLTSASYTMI
UniProt O15243: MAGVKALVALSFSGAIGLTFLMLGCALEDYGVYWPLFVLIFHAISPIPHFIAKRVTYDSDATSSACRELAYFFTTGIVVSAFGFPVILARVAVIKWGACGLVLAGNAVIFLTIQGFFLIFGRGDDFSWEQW
UniProt Q9BQD3: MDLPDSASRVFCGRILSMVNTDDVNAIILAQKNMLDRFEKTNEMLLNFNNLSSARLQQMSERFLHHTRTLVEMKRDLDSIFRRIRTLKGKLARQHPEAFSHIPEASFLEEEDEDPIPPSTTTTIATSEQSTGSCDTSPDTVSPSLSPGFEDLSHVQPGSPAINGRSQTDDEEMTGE

Assays:
Assay in all cases: log2 fold change, soluble protein after heating vs DMSO (PISA); higher = thermal stabilisation; K562 cells, 10 uM, 30 min; active = over 0.2 and 3.5 SD of the protein, either way, in both replicates (recomputed)
[1] = compound: CC[C@@H]1C(=O)N(C)c2cnc(Nc3ccc(C(=O)NC4CCN(C)CC4)cc3OC)nc2N1C1CCCC1
Method in brief: (§1)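 K562 cells at 2×10^6 cells/mL were treated with 10 μM compound for 30 min. Aliquots were heated for 3 min across 48°C-58°C, pooled, and extracted in PBS with 0.5% NP-40 at 4°C; soluble protein was the supernatant after 21,000xg for 90 min. Soluble protein was quantified by TMTpro 16plex LC-MS/MS with channel sums equalised, and reported as log2 fold change in thermal stability against DMSO controls, with values from duplicates.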

[2] = compound: CC[C@H](C)N1C=C(C2=C(C=C(C=C21)C3=CN=C(C=C3)N4CCNCC4)C(=O)NCC5=C(C=C(NC5=O)C)C)C
Method in brief: as §1

epoxomicin = compound: CC[C@H](C)[C@@H](C(=O)N[C@@H]([C@@H](C)O)C(=O)N[C@@H](CC(C)C)C(=O)[C@]1(CO1)C)NC(=O)[C@H]([C@@H](C)CC)N(C)C(=O)C [epoxomicin]
Method in brief: as §1

[3] = compound: CCn1cc(-c2ccnc3[nH]c(-c4cccc(CN(C)C)c4)cc23)c(-c2ccc(NC(=O)N(C)C)cc2)n1
Method in brief: as §1

[4] = compound: CN(C)CC(=O)Nc1ccc2[nH]c(=O)c3ccccc3c2c1
Method in brief: as §1

[5] = compound: CN1C2=C(C3=C1C(=O)N(N=C3)CC4=CC(=CC=C4)N)SC(=C2)S(=O)C
Method in brief: as §1

[6] = compound: CN1CCC(CNc2ccc3ncc(-c4cccc(OC(F)(F)F)c4)n3n2)CC1
Method in brief: as §1

saracatinib = compound: CN1CCN(CCOc2cc(OC3CCOCC3)c3c(Nc4c(Cl)ccc5c4OCO5)ncnc3c2)CC1 [saracatinib]
Method in brief: as §1

sotrastaurin = compound: CN1CCN(c2nc(C3=C(c4c[nH]c5ccccc45)C(=O)NC3=O)c3ccccc3n2)CC1 [sotrastaurin]
Method in brief: as §1

Tubastatin A = compound: CN1CCc2c(c3ccccc3n2Cc2ccc(C(=O)NO)cc2)C1 [Tubastatin A]
Method in brief: as §1

[7] = compound: CNC(=O)C1=CC=CC=C1NC2=NC(=NC=C2Cl)NC3=C(C=C(C=C3)N4CCOCC4)OC
Method in brief: as §1

defactinib = compound: CNC(=O)c1ccc(Nc2ncc(C(F)(F)F)c(NCc3nccnc3N(C)S(C)(=O)=O)n2)cc1 [defactinib]
Method in brief: as §1

rucaparib = compound: CNCc1ccc(-c2[nH]c3cc(F)cc4c3c2CCNC4=O)cc1 [rucaparib]
Method in brief: as §1

[8] = compound: CNc1nc(-c2ccc3c(N)n[nH]c3c2)cc(N2C[C@@H](C(=O)NC3CCCCC3)CC[C@H]2C)n1
Method in brief: as §1

encorafenib = compound: COC(=O)N[C@@H](C)CNc1nccc(-c2cn(C(C)C)nc2-c2cc(Cl)cc(NS(C)(=O)=O)c2F)n1 [encorafenib]
Method in brief: as §1

[9] = compound: COC(=O)[C@H](CCSC)NC(=O)C1=C(C=C(C=C1)NC[C@H](CS)N)C2=CC=CC=C2
Method in brief: as §1

volasertib = compound: CC[C@@H]1C(=O)N(C)c2cnc(Nc3ccc(C(=O)N[C@H]4CC[C@H](N5CCN(CC6CC6)CC5)CC4)cc3OC)nc2N1C(C)C [volasertib]
Method in brief: as §1

[10] = compound: CCn1c(C(=O)N(C2CC2)C2CC2)cc2c3c(ncn3C)c(Nc3cc(C)n(C)n3)nc21
Method in brief: as §1

rosiglitazone = compound: CN(CCOC1=CC=C(C=C1)C[C@H]2C(=O)NC(=O)S2)C3=CC=CC=N3 (racemic) [rosiglitazone]
Method in brief: as §1

alvocidib = compound: CN1CC[C@H](c2c(O)cc(O)c3c(=O)cc(-c4ccccc4Cl)oc23)[C@H](O)C1 [alvocidib]
Method in brief: as §1

Measured: log2 fold change

LENG8 (UniProt Q96PV6)
inactive: [1] -0.029 | [2] -0.009 | epoxomicin 0.101 | [3] 0.073 | [4] 0.065 | [5] -0.225 | [6] -0.238 | saracatinib -0.112 | sotrastaurin -0.043 | Tubastatin A -0.021 | [7] -0.125 | defactinib -0.316 | rucaparib 0.044 | [8] 0.133 | encorafenib 0.129 | [9] -0.133

LRP6 (UniProt O75581)
inactive: [1] 0.042 | volasertib -0.086 | [10] 0.074 | [3] -0.185 | rosiglitazone 0.092 | [5] -0.383 | [6] -0.071 | saracatinib -0.067 | sotrastaurin -0.033 | alvocidib 0.113 | Tubastatin A 0.129 | [7] -0.109 | rucaparib -0.066 | [8] 0.074 | encorafenib -0.138

LRP5 (UniProt O75197)
inactive: volasertib -0.099 | [2] 0.005 | epoxomicin 0.048 | [3] 0.048 | [4] -0.08 | [5] 0.06 | [6] 0.045 | saracatinib -0.1 | alvocidib 0.136 | Tubastatin A -0.172 | defactinib 0.08 | [8] -0.107 | [9] -0.023

LAS1L (UniProt Q9Y4W2)
inactive: volasertib -0.018 | epoxomicin -0.065 | [3] -0.002 | [4] -0.056 | rosiglitazone 0.09 | [5] 0.378 | [6] 0.004 | saracatinib -0.157 | sotrastaurin 0.265 | alvocidib 0.072 | Tubastatin A 0.084 | defactinib -0.246 | [8] -0.11 | [9] 0.038

LLGL1 (UniProt Q15334)
inactive: volasertib 0.009 | epoxomicin -0.048 | [10] -0.023 | [5] -0.073 | saracatinib 0.016 | sotrastaurin 0.012 | alvocidib 0.044 | Tubastatin A 0.023 | [7] -0.004 | [8] 0.063

LMO4 (UniProt P61968)
inactive: [1] -0.029 | volasertib 0.032 | [3] 0.073 | rosiglitazone -0.04 | [5] -0.004 | [6] 0.003 | saracatinib -0.051 | alvocidib 0.033 | Tubastatin A -0.099 | rucaparib 0.015 | [8] -0.089 | encorafenib -0.187

LGALS3 (UniProt P17931)
inactive: [1] 0.197 | [2] 0.096 | [3] -0.192 | rosiglitazone 0.148 | [5] 0.207 | [6] 0.043 | saracatinib -0.017 | rucaparib -0.251 | [8] -0.029 | encorafenib -0.343

LEPROT (UniProt O15243)
inactive: [1] -0.052 | epoxomicin 0.129 | [3] 0.075 | [5] 0.117 | [6] -0.03 | saracatinib -0.261 | Tubastatin A -0.133 | [7] 0.087 | rucaparib 0.028 | [8] -0.25 | encorafenib -0.077

KXD1 (UniProt Q9BQD3)
inactive: [1] -0.154 | volasertib -0.035 | epoxomicin -0.077 | [3] 0.041 | [4] 0.062 | [5] 0.011 | [6] -0.096 | saracatinib -0.097 | Tubastatin A -0.01 | [7] 0.008 | defactinib -0.03 | rucaparib -0.051 | [8] -0.07 | encorafenib 0.018 | [9] 0.017
